## Assay results

From PubChem BioAssay record AID912 (NCATS, 2007).

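A cell-based FRET test of anthrax lethal toxin entry, tracked through the 460 nm emission signal; the cell line is not named here. Each compound was tested as a concentration series from about 0.0005 to 40 µM. The number is the fitted AC50 of the 460 nm signal alone; lower values mean a more potent effect. A falling signal goes with compounds filed as inhibitors or cytotoxic, a rising one with activators or fluorescent compounds (inferred from the filed classes).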

Values are in µM. Common to all entries: measured here: 460 nm channel. This is a side read-out of the assay, for part of the compounds, not drawn at random. Potencies fitted to partial, single-point or poorly fitting curves are rough. The first word of each remark tells which way the curve ran; it can be opposite to the aim of the assay.

structure,AC50 (µM),remark
COc1cccc(Nc2ncc3nc(CCc4ccccc4)c(=O)n(C4CC4)c3n2)c1,10,"rising, partial curve"
N#Cc1cccc(-c2nc3cnc(N4CCOCC4)nc3n(Cc3ccc(F)cc3)c2=O)c1,0.5012,"rising, full curve"
CC1CCN(S(=O)(=O)c2ccc3[nH]c(=O)cc(C(=O)O)c3c2)CC1,0.3981,"falling, partial curve"
N#Cc1c(N)n(CCNC(=O)c2cccs2)c2nc3ccccc3nc12,0.7943,"rising, full curve, poor fit"
O=c1c2ccccc2sn1-c1ccc(S(=O)(=O)N2CCCC2)cc1,0.1585,"falling, full curve"
COc1ccc(CNc2cc(-c3ccccc3C)ncn2)c(OC)c1,25.12,"falling, single point"
O=C(/C=C\Nc1cccc(F)c1)c1ccc2c(c1)OCO2,1.259,"rising, partial curve, poor fit"
CCn1c(=O)cc(OCC(=O)N2CCN(c3cccc(C(F)(F)F)c3)CC2)c2ccccc21,25.12,"falling, partial curve"
O=C(O)c1ccc(N2CCCCCC2)c(N2C(=O)c3ccccc3C2=O)c1,2.512,"rising, single point"
Oc1cc(Cl)c(Cl)c(Cl)c1,10,"falling, full curve"
Oc1c(C(O)(c2ccccc2)c2ccc3ccccc3c2O)ccc2ccccc12,3.981,"falling, single point"
CC(C)[C@](N)(C(=O)O)c1ccccc1,1,"rising, single point"
Cc1cc(C(=O)CSc2n[nH]c(N)n2)c(C)n1-c1cccc(F)c1,6.31,"falling, full curve"
CCOC(=O)c1c(C)n(C)c2ccc(OCC(O)Cn3nc(C)c(Br)c3C)cc12 (centres undefined),6.31,"falling, partial curve"
CC(=O)NCCn1c(SCc2ccccc2F)nc2ccccc2c1=O,3.981,"falling, full curve"
O=C(Nc1ncc2c(n1)CC(c1ccco1)CC2=O)c1ccccc1 (centres undefined),0.003981,"rising, full curve, poor fit"
CCOC(=O)C1CCN(C(=O)c2cccnc2)CC1,0.3981,"falling, partial curve"
CCC/C=C(\CCC)C(NS(=O)(=O)c1ccc(Cl)cc1)c1ccccc1 (centres undefined),5.012,"falling, single point"
CCSc1ccccc1C(=O)n1nnc2ccccc21,10,"falling, partial curve"
Cc1cc(NC(=O)CSc2nc3ccsc3c(=O)n2Cc2ccccn2)n[nH]1,3.162,"rising, single point"
COc1cc(/C=N/n2cnnc2)ccc1OCCOc1ccccc1,5.012,"falling, single point"
Cc1ccc(-c2nn(CC(C)(C)C)c3ncnc(N)c23)cc1,3.162,"falling, full curve"
COC(=O)c1cccc(C(=O)Nc2ccc(C)cc2Br)n1,10,"falling, partial curve"
CN(C)CCC=C1c2ccccc2CCc2ccccc21,15.85,"falling, partial curve, poor fit"
COc1ccc2c(c1)C(=O)CC(c1ccccc1F)O2 (centres undefined),19.95,"rising, partial curve"
COC(=O)C1=C(C)NC(C)=C(C(=O)OC)C1c1cc2ccc(C)cc2[nH]c1=O,5.012,"falling, single point"
CCCCCCCCCCCCCCCC(=O)O[C@H](CC(=O)O)C[N+](C)(C)C,12.59,"falling, full curve"
CN1CCN(c2ncc3nc(-c4ccccc4)c(=O)n(C)c3n2)CC1,10,"rising, partial curve"
O=C(c1ccc(F)cc1)C(CN1CCOCC1)c1ccccc1 (centres undefined),10,"falling, partial curve, poor fit"
C[C@@]12C(=O)OC(=O)[C@]1(C)[C@H]1CC[C@@H]2O1,2.512,"falling, single point"
CN1C[C@H](CNC(=O)OCc2ccccc2)C[C@H]2c3cccc4c3c(cn4C)C[C@@H]21,31.62,"falling, partial curve"
CCCc1cc(C(=O)Nc2sc(C)c(C)c2C(=O)OCC)no1,12.59,"falling, partial curve"
CCCN1C[C@@H](CSC)C[C@H]2c3cccc4[nH]cc(c34)C[C@@H]21,10,"falling, partial curve, poor fit"
CS(=O)(=O)N1CCC2(CCN(c3ccncc3)CC2)CC1,2.512,"falling, full curve"
O=C(Nc1ccccc1)N1CCCC2(CCN(S(=O)(=O)c3ccccc3)CC2)C1,19.95,"falling, single point"
CN1CCc2cc3c(cc2[C@@H]1[C@@H]1C(=O)Oc2c1ccc1c2OCO1)OCO3,0.002512,"rising, full curve, poor fit"
O=c1c(-c2cc(F)cc(F)c2)nc2cnc(N3CCOCC3)nc2n1CCc1ccccc1,1.585,"rising, full curve"
N#Cc1nc(Cc2ccccc2)oc1NCc1ccccc1Cl,0.003162,"rising, full curve, poor fit"
COc1ccc(CCN2C(=O)c3[nH]nc(-c4ccccc4O)c3C2c2ccc(C)cc2)cc1OC (centres undefined),0.01995,"rising, partial curve"
COc1ccc(-n2nnnc2-c2cccc(OC)c2)cc1,12.59,"falling, single point"
Oc1cc2c(cc1O)[C@H]1c3ccccc3CN[C@H]1CC2,19.95,"falling, partial curve"
CCOCCCn1c(=N)c(C(=O)NCc2ccc3c(c2)OCO3)cc2c(=O)n3cccc(C)c3nc21,0.1259,"falling, partial curve"

Once more, the final 3:

structure	AC50 (µM)	remark
COc1ccc(-n2nnnc2-c2cccc(OC)c2)cc1	12.59	falling, single point
Oc1cc2c(cc1O)[C@H]1c3ccccc3CN[C@H]1CC2	19.95	falling, partial curve
CCOCCCn1c(=N)c(C(=O)NCc2ccc3c(c2)OCO3)cc2c(=O)n3cccc(C)c3nc21	0.1259	falling, partial curve